Measurements as given in PubChem BioAssay AID2685 (National Center for Advancing Translational Sciences (NCATS), 2010).
The list shows a part of the results. The main result of the screen is listed elsewhere. These columns were measured beside it and carry no call. The list favours compounds with an active or inconclusive main result. Potencies come from curve fits of mixed quality, noted in brackets.

Assay: qHTS Assay for Lipid Storage Modulators in Drosophila S3 Cells;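 on cell number change: cells counted by Cell Tracker Red CMTPX staining in the red channel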
Conditions: BODIPY lipid droplet fluorescence, 18-24 h; for cell number change: measured here: cell count max response, cells fed with added oleic acid
Method in brief: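 Drosophila S3 cells loaded with oleic acid (400 uM, as added) and compounds at several concentrations; lipid droplets imaged by 488-nm laser-scanning cytometry, 500–530 nm intensity and object ratio to cell channel. Percent activity normalized to 20 uM Triacsin C.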

[1] = measured here: lipid fluorescence (Fed channel) AC50, cells fed with added oleic acid
[2] = measured here: cell number channel AC50, cells fed with added oleic acid

Row | SMILES | AC50 [1] | cell number change [%] | AC50 [2]
1 | CCCCOc1ccc(C2/C(=C(/O)c3ccc4c(c3)CC(C)O4)C(=O)C(=O)N2CCCN2CCOCC2)cc1OC (stereo not given) | 29.1 µM [falling, single point] |  | 
2 | Cc1ccc(Nc2ncnc3nc[nH]c23)cc1Cl | 0.731 µM [rising, full curve] | 40.6 | 6.51 µM [rising, partial curve, poor fit]
3 | O=C(Cn1cc(SCc2ccc(F)cc2)c2ccccc21)N1CCOCC1 | 20.6 µM [falling, single point] | -20.9 | 
4 | COc1nc(C)nc(C)c1Oc1ccc(Cl)cc1Cl |  | -2.97 | 0.00517 µM [rising, full curve, poor fit]
5 | Cc1oc(C(C)(C)C)c(CN2CCOCC2)c1C(=O)O | 0.259 µM [rising, full curve, poor fit] | 13.5 | 
6 | CCn1c(O)c(C=NC2CCCC2)sc1=S | 0.00461 µM [falling, full curve, poor fit] | -14.5 | 
7 | COc1cc2cc(C(c3nnnn3C(C)(C)C)N3CCc4ccccc43)c(=O)[nH]c2cc1OC (stereo not given) | 2.31 µM [rising, single point] | -2.15 | 0.00461 µM [falling, full curve, poor fit]
8 | CCOC(=O)C1=NNC2C(=O)N(Cc3ccccc3)C(=O)C12 (stereo not given) | 29.1 µM [rising, single point] | 19.8 | 
9 | CCCc1ccc(NC(C)C(=O)Nc2ccc(S(=O)(=O)N3CCOCC3)cc2)cc1 (stereo not given) | 29.1 µM [rising, single point] |  | 
10 | NC(=O)[C@H]1CC2(CC(c3cccc(NC(=O)COc4ccc(Cl)cc4)c3)=NO2)CN1C(=O)Cc1ccc([N+](=O)[O-])cc1 (stereo not given in full) | 29.1 µM [falling, single point] | -19.6 | 
11 | Cc1ccnc(NC(=O)CCC(=O)N(CC(=O)NC(C)(C)C)c2ccc(F)c(Cl)c2)c1 | 20.6 µM [falling, single point] | -36.5 | 16.4 µM [falling, single point]
12 | Cc1cc(C)c2cc(CN(CCN3CCCC3)C(=O)Nc3ccc(F)cc3)c(=O)[nH]c2c1 | 18.4 µM [falling, single point] | -6.76 | 
13 | O=C(N/C(=C/c1ccccc1)C(=O)N1CCCCC1)c1ccco1 | 18.4 µM [rising, single point] | -8.29 | 
14 | O=C(COC(=O)c1cc(Cl)ccc1O)NC(=O)NCc1ccccc1 |  | 8.4 | 0.461 µM [falling, single point]
15 | Cc1c(Br)c([N+](=O)[O-])nn1CC(=O)Nc1ccc(C(C)C)cc1 |  |  | 1.46 µM [falling, partial curve]
16 | CC1=C(C#N)C(c2cccnc2)C2=C(CC(C)(C)CC2=O)N1 (stereo not given) |  | -17.3 | 0.116 µM [falling, single point]
17 | CN1CCN(c2ccccc2NC(=O)c2ccc(-c3ccc(Cl)cc3Cl)o2)CC1 | 29.1 µM [falling, single point] | -70.6 | 29.1 µM [falling, single point]
18 | C=CCn1c(CCNC(=O)c2cccs2)nnc1SCC(=O)Nc1cccc(F)c1 |  | 34.1 | 8.2 µM [rising, single point]

Row | SMILES | AC50 [1] | cell number change [%] | AC50 [2]
19 | Cc1ccc(S(=O)(=O)N2CCOCC2)cc1NC(=O)CSc1nnc(N)s1 | 29.1 µM [rising, single point] | 117 | 11.6 µM [rising, partial curve]
20 | O=C(NCCc1cn[nH]c1)C1CCC(=O)N(CCc2cccc(F)c2)C1 (stereo not given) | 0.58 µM [falling, single point] | 16.4 | 
21 | CN(C1=NS(=O)(=O)c2ccccc21)c1ccc(OC(=O)c2ccccc2)cc1 |  | 44.9 | 3.26 µM [rising, partial curve]
22 | CC1(C)CC(NC(=O)c2cccc([N+](=O)[O-])c2)CC(C)(C)N1 | 29.1 µM [falling, single point] | 21.8 | 
23 | O=C(NCCc1c[nH]c2ccccc12)C(=O)NCC1OCCN1S(=O)(=O)c1ccc(Cl)cc1 (stereo not given) | 1.64 µM [rising, partial curve] | 1.08 | 
24 | CC(C)CC(/C(O)=C(\C#N)c1nc2ccccc2[nH]1)N1C(=O)c2ccccc2C1=O (stereo not given) | 6.51 µM [rising, single point] | 6.75 | 
25 | Cc1nn(-c2ccccc2)c(N2CCCCC2)c1/C=N/NC(=O)c1ccncc1 | 0.517 µM [rising, single point] |  | 
26 | CCc1nc2ccccc2c(C(=O)Nc2cccc(C)c2)c1C | 29.1 µM [rising, partial curve, poor fit] | 7.94 | 
27 | CCN(CC)S(=O)(=O)c1ccc2oc(SCC(=O)NC3CC3)nc2c1 | 0.116 µM [rising, full curve, poor fit] | 17.8 | 
28 | CC(=O)NC(=S)Nc1ccc(S(=O)(=O)Nc2nc(C)cc(C)n2)cc1 | 0.291 µM [falling, single point] | -35 | 
29 | COc1ccc(OC)c(/C=N/NC(=O)c2c(C)nc3ccc(C)cn23)c1 | 0.58 µM [rising, single point] |  | 0.92 µM [rising, single point]
30 | CC(C)c1nnc(NC(=O)c2nc(S(=O)(=O)Cc3ccccc3)ncc2Cl)s1 | 5.17 µM [falling, single point] | -14.5 | 
31 | NS(=O)(=O)c1cccc(NC(=O)COc2ncnc3c2cnn3-c2ccccc2)c1 |  | -40.7 | 
32 | COc1ccc(O)c(CN2CCC(n3nccc3NC(=O)CCOc3ccccc3)CC2)c1 | 11.6 µM [rising, partial curve, poor fit] | 35.2 | 10.3 µM [rising, partial curve]
33 | CCOC(=O)c1[nH]c2c(c1C)C(=O)CC(c1ccc(F)cc1)C2 (stereo not given) | 0.13 µM [rising, full curve, poor fit] |  | 0.146 µM [rising, full curve, poor fit]
34 | Cc1ccc(C(=O)N2CCOCC2)cc1[N+](=O)[O-] | 0.651 µM [falling, full curve, poor fit] | -16.5 | 
35 | O=C1/C(=C/c2ccncc2)N=C2CCCCCN12 |  | 9.66 | 

Limited to cell number change [%], for 3 of the compounds above:
Row,SMILES,cell number change [%]
10,NC(=O)[C@H]1CC2(CC(c3cccc(NC(=O)COc4ccc(Cl)cc4)c3)=NO2)CN1C(=O)Cc1ccc([N+](=O)[O-])cc1 (stereo not given in full),-19.6
11,Cc1ccnc(NC(=O)CCC(=O)N(CC(=O)NC(C)(C)C)c2ccc(F)c(Cl)c2)c1,-36.5
12,Cc1cc(C)c2cc(CN(CCN3CCCC3)C(=O)Nc3ccc(F)cc3)c(=O)[nH]c2c1,-6.76
